Assay results published in PMC3675069.
Results are given in words; binding and its absence hold for the method and conditions named. Binding seen in cells or lysates may run through a third protein. Some binding calls cover weakened binding; strength is not graded here.

Target: R181C V2R/Rluc8 (human) (UniProt P30518)
Assay: FRET or BRET; live HEK293FT cells co-expressing V2R/Rluc8 and ubiquitin K48,63A/Venus; AVP at several doses for 120 min; ligand-induced BRET, 37°C

With “Ubiquitin K48,63A fused to Venus (ubiquitin/Venus) (from UniProt P0CG47 1-76)” the binding was “binds”.
